Laboratory results as given in patent US20220403023A1.

Legend:
Assay in all cases: ELISA, protein coated at 1 µg/mL
[1] = target: CTLA4.his
[2] = target: OX40.his
[3] = target: VEGF.his
[4] = target: CD3.his
[5] = target: FGFR.his
[6] = target: VEGFR2.his
[7] = target: Factor Eight
[8] = target: 4-1B8.his
[9] = target: CD40.his
[10] = target: CD147.his
[11] = target: CD22.his

binding [1]: no binding (tested: 10 ug/ml)
binding [2]: no binding (tested: 10 ug/ml)
binding [3]: no binding (tested: 10 ug/ml)
binding [4]: no binding (tested: 10 ug/ml)
binding [5]: no binding (tested: 10 ug/ml)
binding [6]: no binding (tested: 10 ug/ml)
binding [7]: no binding (tested: 10 ug/ml)
binding [8]: no binding (tested: 10 ug/ml)
binding [9]: no binding (tested: 10 ug/ml)
binding [10]: no binding (tested: 10 ug/ml)
binding [11]: no binding (tested: 10 ug/ml)
B1: W3455-4.9.9-uIgG4.SPL (antibody, V domains shown)
VH: EVQLLESGGGLVQPGGSLRLSCAASGFTFSNFAMSWVRQAPGKGLEWVSTISASGGRTFYADSVKGRITISRDNSKNTLFLQMNGLRAEDTAVYYCAKEGSFGEGVDPWGQGTLVTVSS
VL: SYEMTQPPSVSVSPGQTARITCSGDALPKKYAYWYQQKSGQAPVLVIYEDNKRPSGIPERFSGSSSGTMATLTISGAQVEDEADYYCYSTDISGNHWVFGGGTELTVLG

No constants are given. Whether binding was seen depends on the method and setting.
